PubChem BioAssay AID1259254 – NCATS – 2017
Aim: 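Gene knock-downs that lead to re-replication, shown by excess G2 DNA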 (primary screen). System: human HCT116 colorectal cancer cells. Reagent: single siRNA against human genes. Duration: 3 days. Read-out: 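Imaged Hoechst DNA stain sorts each cell into a cycle phase by DNA amount; per plate, G2 fraction set to 0% for non-targeting and 100% for GMNN siRNA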. Direction: G2 robust z-score: higher = more G2 cells, more excess DNA replication. Rule for the call: 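Active siRNAs have a G2 robust z of 5 or more median absolute deviations over the median, which in these data means about 38% or higher of GMNN control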.
The deposit covers about 59,000 reagents; below is a part drawn at random. Of all reagents, about 1,550 (2.6%) got an active call. 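G2 share is only a proxy for re-replication; each gene was hit by three separate siRNAs, and active genes were retested.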 Entries without a mark were called inactive. The numbers tell different reagents against one gene apart. Not all columns of the deposit are shown. Not given: the amount of reagent.

| gene | reagent | G2 robust z-score |
| --- | --- | --- |
| LINC00477 | 1 | 0.254 |
| LINC00477 | 2 | 0.805 |
| LINC00477 | 3 | -0.532 |
| FLJ40039 (retired record) | 1 | 0.393 |
| FLJ40039 (retired record) | 2 | 3.77 |
| FLJ40039 (retired record) | 3 | 0.858 |
| PCSK1N | 1 | 1.36 |
| PCSK1N | 2 | 0.226 |
| PCSK1N | 3 | 2.28 |
| LRP5L | 1 | -0.478 |
| LRP5L | 2 | -0.323 |
| LRP5L | 3 | -0.299 |
| MTFR2 | 1 | -1.26 |
| MTFR2 | 2 | -0.692 |
| MTFR2 | 3 | 1.91 |
| VPS4B | 1 | 0.274 |
| VPS4B | 2 | 4.46 |
| VPS4B | 3 | -1.15 |
| CCDC146 | 1 | -0.671 |
| CCDC146 | 2 | -1.49 |
| CCDC146 | 3 | -0.448 |
| EIF6 | 1 | 0.129 |
| EIF6 | 2 | 2.94 |
| EIF6 | 3 | 0.319 |
| TFAP2C | 1 | -0.903 |
| TFAP2C | 2 | 0.116 |
| TFAP2C | 3 | -0.655 |
| AP1S1 | 1 | -0.603 |
| AP1S1 | 2 | 1.17 |
| AP1S1 | 3 | -1.34 |
| GLT8D1 | 1 | -0.355 |
| GLT8D1 | 2 | 1.83 |
| GLT8D1 | 3 | 6.74 (active) |
| OR51B2 | 1 | 0.538 |
| OR51B2 | 2 | -0.961 |
| OR51B2 | 3 | -0.752 |
| FANCI | 1 | -0.948 |
| FANCI | 2 | -0.306 |
| FANCI | 3 | -0.538 |
| S100A6 | 1 | -0.0939 |
| S100A6 | 2 | -0.87 |
| S100A6 | 3 | -0.843 |
| PCNX2 | 1 | 1.58 |
| PCNX2 | 2 | -0.235 |
| PCNX2 | 3 | -0.983 |
| NEXMIF | 1 | -0.454 |
| NEXMIF | 2 | 0.63 |
| NEXMIF | 3 | -0.0131 |
| NDP | 1 | 0.568 |
| NDP | 2 | -0.45 |
| NDP | 3 | 0.128 |
| DDX28 | 1 | -0.797 |
| DDX28 | 2 | -0.515 |
| DDX28 | 3 | -0.417 |
| GLTPP1 | 1 | -0.993 |
| GLTPP1 | 2 | -0.397 |
| GLTPP1 | 3 | -0.561 |
| PIGL | 1 | -0.707 |
| PIGL | 2 | 0.677 |
| PIGL | 3 | -1.01 |
| SRRM4 | 1 | 1.46 |
| SRRM4 | 2 | 1.28 |
| SRRM4 | 3 | -0.626 |
| MIB2 | 1 | -0.551 |
| MIB2 | 2 | -0.726 |
| MIB2 | 3 | -0.326 |
| DUSP14 | 1 | 0.0553 |
| DUSP14 | 2 | -0.354 |
| DUSP14 | 3 | 0.32 |
